Source: PMC9709975, “Chromatin-associated microprocessor assembly is regulated by the U1 snRNP auxiliary protein PRP40” (The Plant Cell, 2022)
No constants are given. Whether binding was seen depends on the method and setting. For some assays here: Binding seen in cells or lysates may run through a third protein. Some results given as binding are weak or reduced against the parent protein; the word gives no strength.

Columns and labels:
[1] = biological target: T1, SERRATE (SE), in Arabidopsis cell nuclei (Arabidopsis thaliana (endogenous in Arabidopsis leaf nuclei)) (UniProt Q9ZVD0); experiment: proximity ligation; Duolink In Situ Orange Kit on nuclei isolated from fixed Arabidopsis leaves; WT, prp40ab and se-2 plants; rabbit antibodies to SE or AtPRP40b, rat antibodies to phosphorylated RNAPII
T1 sequence: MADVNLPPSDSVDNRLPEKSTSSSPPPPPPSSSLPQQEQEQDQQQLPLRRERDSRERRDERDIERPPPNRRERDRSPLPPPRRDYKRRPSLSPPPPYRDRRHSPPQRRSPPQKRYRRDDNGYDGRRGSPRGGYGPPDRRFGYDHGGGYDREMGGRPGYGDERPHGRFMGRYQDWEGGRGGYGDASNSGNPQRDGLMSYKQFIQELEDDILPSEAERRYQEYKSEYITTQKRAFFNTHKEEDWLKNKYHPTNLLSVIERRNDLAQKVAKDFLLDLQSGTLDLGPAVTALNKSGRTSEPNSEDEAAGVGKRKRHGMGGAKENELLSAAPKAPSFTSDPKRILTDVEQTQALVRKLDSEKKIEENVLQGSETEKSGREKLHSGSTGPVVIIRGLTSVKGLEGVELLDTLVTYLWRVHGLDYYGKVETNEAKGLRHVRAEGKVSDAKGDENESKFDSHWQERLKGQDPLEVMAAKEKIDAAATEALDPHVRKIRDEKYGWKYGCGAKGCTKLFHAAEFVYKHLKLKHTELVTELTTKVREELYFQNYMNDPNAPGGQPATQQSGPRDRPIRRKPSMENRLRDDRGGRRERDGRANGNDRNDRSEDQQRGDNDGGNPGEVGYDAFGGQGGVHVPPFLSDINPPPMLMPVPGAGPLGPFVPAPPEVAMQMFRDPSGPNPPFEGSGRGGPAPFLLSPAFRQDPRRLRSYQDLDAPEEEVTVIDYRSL

[2] = biological target: T2, PRE-MRNA PROCESSING PROTEIN 40b (AtPRP40b), recombinant (Arabidopsis thaliana) (UniProt F4JCC1); experiment: pull-down; 2 µg biotinylated CTD peptide on streptavidin paramagnetic particles; 2 µg of SE variant and AtPRP40b together; 1.5 h at 4°C in PBS pH 8.3, 5% glycerol, 1 mM DTT, 0.1% NP-40; five washes, immunoblot; both purified
T2 sequence: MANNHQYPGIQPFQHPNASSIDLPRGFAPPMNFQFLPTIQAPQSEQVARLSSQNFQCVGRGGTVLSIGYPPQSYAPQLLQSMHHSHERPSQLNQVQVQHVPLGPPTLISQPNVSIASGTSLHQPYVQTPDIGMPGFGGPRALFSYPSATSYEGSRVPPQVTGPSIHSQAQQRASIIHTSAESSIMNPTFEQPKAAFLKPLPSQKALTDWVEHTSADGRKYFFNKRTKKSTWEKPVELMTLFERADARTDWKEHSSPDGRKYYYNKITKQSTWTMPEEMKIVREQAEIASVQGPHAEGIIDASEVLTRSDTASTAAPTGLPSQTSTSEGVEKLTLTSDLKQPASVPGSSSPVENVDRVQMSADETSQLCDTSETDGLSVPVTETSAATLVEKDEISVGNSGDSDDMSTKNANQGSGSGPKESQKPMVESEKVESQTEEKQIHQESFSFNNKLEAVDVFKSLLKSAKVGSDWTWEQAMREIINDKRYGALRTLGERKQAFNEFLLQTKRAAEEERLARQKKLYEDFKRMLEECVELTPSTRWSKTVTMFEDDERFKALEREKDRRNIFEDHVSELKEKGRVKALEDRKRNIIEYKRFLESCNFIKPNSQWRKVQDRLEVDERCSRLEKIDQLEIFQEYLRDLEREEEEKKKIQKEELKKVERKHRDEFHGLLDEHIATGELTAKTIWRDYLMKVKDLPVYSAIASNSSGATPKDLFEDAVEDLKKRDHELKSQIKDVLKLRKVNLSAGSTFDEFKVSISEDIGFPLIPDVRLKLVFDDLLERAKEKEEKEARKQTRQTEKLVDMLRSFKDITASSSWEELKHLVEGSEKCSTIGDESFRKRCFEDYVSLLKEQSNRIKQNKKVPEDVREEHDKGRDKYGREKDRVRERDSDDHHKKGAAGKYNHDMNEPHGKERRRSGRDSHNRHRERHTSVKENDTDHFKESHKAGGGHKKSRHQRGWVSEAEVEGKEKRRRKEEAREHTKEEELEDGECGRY

Row | Binder | binding [1] | binding [2]
1 | AtPRP40b, endogenous in Arabidopsis cell nuclei (protein, UniProt F4JCC1 1-992) MANNHQYPGIQPFQHPNASSIDLPRGFAPPMNFQFLPTIQAPQSEQVARLSSQNFQCVGRGGTVLSIGYPPQSYAPQLLQSMHHSHERPSQLNQVQVQHVPLGPPTLISQPNVSIASGTSLHQPYVQTPDIGMPGFGGPRALFSYPSATSYEGSRVPPQVTGPSIHSQAQQRASIIHTSAESSIMNPTFEQPKAAFLKPLPSQKALTDWVEHTSADGRKYFFNKRTKKSTWEKPVELMTLFERADARTDWKEHSSPDGRKYYYNKITKQSTWTMPEEMKIVREQAEIASVQGPHAEGIIDASEVLTRSDTASTAAPTGLPSQTSTSEGVEKLTLTSDLKQPASVPGSSSPVENVDRVQMSADETSQLCDTSETDGLSVPVTETSAATLVEKDEISVGNSGDSDDMSTKNANQGSGSGPKESQKPMVESEKVESQTEEKQIHQESFSFNNKLEAVDVFKSLLKSAKVGSDWTWEQAMREIINDKRYGALRTLGERKQAFNEFLLQTKRAAEEERLARQKKLYEDFKRMLEECVELTPSTRWSKTVTMFEDDERFKALEREKDRRNIFEDHVSELKEKGRVKALEDRKRNIIEYKRFLESCNFIKPNSQWRKVQDRLEVDERCSRLEKIDQLEIFQEYLRDLEREEEEKKKIQKEELKKVERKHRDEFHGLLDEHIATGELTAKTIWRDYLMKVKDLPVYSAIASNSSGATPKDLFEDAVEDLKKRDHELKSQIKDVLKLRKVNLSAGSTFDEFKVSISEDIGFPLIPDVRLKLVFDDLLERAKEKEEKEARKQTRQTEKLVDMLRSFKDITASSSWEELKHLVEGSEKCSTIGDESFRKRCFEDYVSLLKEQSNRIKQNKKVPEDVREEHDKGRDKYGREKDRVRERDSDDHHKKGAAGKYNHDMNEPHGKERRRSGRDSHNRHRERHTSVKENDTDHFKESHKAGGGHKKSRHQRGWVSEAEVEGKEKRRRKEEAREHTKEEELEDGECGRY | binds | 
2 | SE protein lacking 40 C-terminal amino acids (SEΔ681-720), recombinant (domain or fragment, UniProt Q9ZVD0 1-680) MADVNLPPSDSVDNRLPEKSTSSSPPPPPPSSSLPQQEQEQDQQQLPLRRERDSRERRDERDIERPPPNRRERDRSPLPPPRRDYKRRPSLSPPPPYRDRRHSPPQRRSPPQKRYRRDDNGYDGRRGSPRGGYGPPDRRFGYDHGGGYDREMGGRPGYGDERPHGRFMGRYQDWEGGRGGYGDASNSGNPQRDGLMSYKQFIQELEDDILPSEAERRYQEYKSEYITTQKRAFFNTHKEEDWLKNKYHPTNLLSVIERRNDLAQKVAKDFLLDLQSGTLDLGPAVTALNKSGRTSEPNSEDEAAGVGKRKRHGMGGAKENELLSAAPKAPSFTSDPKRILTDVEQTQALVRKLDSEKKIEENVLQGSETEKSGREKLHSGSTGPVVIIRGLTSVKGLEGVELLDTLVTYLWRVHGLDYYGKVETNEAKGLRHVRAEGKVSDAKGDENESKFDSHWQERLKGQDPLEVMAAKEKIDAAATEALDPHVRKIRDEKYGWKYGCGAKGCTKLFHAAEFVYKHLKLKHTELVTELTTKVREELYFQNYMNDPNAPGGQPATQQSGPRDRPIRRKPSMENRLRDDRGGRRERDGRANGNDRNDRSEDQQRGDNDGGNPGEVGYDAFGGQGGVHVPPFLSDINPPPMLMPVPGAGPLGPFVPAPPEVAMQMFRDPSGPNPPFEGSGR |  | no binding (tested: 2 µg of SE variant)
